From PMC8447601 come the findings set out here.

Assay [1] deals with T1, GFP‐SnRK1α2 (Arabidopsis thaliana) (UniProt P92958).
T1 sequence: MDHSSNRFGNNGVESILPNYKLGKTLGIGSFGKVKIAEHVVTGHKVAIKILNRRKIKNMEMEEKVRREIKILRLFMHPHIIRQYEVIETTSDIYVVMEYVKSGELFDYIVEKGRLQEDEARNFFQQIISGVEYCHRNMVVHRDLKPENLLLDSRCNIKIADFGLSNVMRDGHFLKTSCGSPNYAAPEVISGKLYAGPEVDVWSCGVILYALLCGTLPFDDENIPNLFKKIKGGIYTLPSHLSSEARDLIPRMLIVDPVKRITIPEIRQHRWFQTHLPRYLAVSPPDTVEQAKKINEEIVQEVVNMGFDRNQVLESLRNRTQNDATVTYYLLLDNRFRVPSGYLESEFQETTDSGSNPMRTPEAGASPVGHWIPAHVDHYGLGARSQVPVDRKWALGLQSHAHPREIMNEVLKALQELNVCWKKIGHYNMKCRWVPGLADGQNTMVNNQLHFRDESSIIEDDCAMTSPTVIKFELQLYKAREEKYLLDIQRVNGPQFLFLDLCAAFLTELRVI
In words: co-IP; α-GFP microbeads on extracts of 10-day-old Arabidopsis seedlings expressing the GFP fusion; no-salt lysis buffer (50 mM Tris pH 8.0, 0.1% Nonidet P-40), 1 h at 4°C; native TSN detected with α-TSN; seedlings NS (23°C), HS (39°C for 60 min) or NaCl for 60 min.

Assay [2] concerns the target T2, GFP‐SnRK1α1 (Arabidopsis thaliana) (UniProt Q38997).
T2 sequence: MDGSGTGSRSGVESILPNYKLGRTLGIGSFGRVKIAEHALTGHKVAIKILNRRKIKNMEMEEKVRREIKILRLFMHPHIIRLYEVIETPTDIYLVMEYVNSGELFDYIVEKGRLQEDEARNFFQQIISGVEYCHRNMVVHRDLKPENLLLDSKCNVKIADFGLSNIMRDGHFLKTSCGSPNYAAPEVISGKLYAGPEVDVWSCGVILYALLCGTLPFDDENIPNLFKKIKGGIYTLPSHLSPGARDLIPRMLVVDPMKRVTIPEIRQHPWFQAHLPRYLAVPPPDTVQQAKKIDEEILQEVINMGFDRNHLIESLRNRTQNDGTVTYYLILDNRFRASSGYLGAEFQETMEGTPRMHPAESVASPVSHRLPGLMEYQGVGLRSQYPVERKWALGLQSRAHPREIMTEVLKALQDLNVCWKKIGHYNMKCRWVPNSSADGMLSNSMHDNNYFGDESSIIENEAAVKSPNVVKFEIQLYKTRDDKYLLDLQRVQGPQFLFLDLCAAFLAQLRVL
The description is as above.

Results are given in words; binding and its absence hold for the method and conditions named. Binding seen in cells or lysates may run through a third protein. Binding calls can cover weak binding; strength is not graded here. Where a sequence is shown, tags or fusion partners need not be part of it.

In the case of “native TSN (endogenous Tudor staphylococcal nuclease, 107 kD)”, the binding result in assay [1] and in assay [2] was “binds” throughout.
